In US20220213209A1:
Results are given in words; binding and its absence hold for the method and conditions named. Some entries that bind do so weakly or less than the wild type.

Target: macaca mulatta GITR (Macaca mulatta) (UniProt F7DDV8)
Test: BLI OctetRed 96

B1: BCD166-01-014 (antibody, human IgG1, lambda, V domains shown)
VH: QVQLVQSGGGLVQPGGSLRLSCAASGFTFSYYWMYWVRQAPGKGLEWVSAISWNGGRTYYAESMKGRFTISRDNAQNTLYLQMNSLKSEDTAVYYCAKNRYYSDPNYGMNLWGKGTTVTVSS
VL: QSALTQPASVSGSPGQSITISCTGTSTDIGTYKYISWYQQHPGKAPKLIIYGVSHRPSGVSDRFSGSKSDNTASLTISGLQAEDEADYYCSSYTSSGTVVFGGGTKVTVLG
binding: binds
